No constants are given. Whether binding was seen depends on the method and setting. In cells and extracts the contact can be indirect. For part of these data: A result given as binding can be weak or reduced; the word gives no strength.

Sequences of proteins named here, by UniProt entry; tags and fusion partners are left off. A change or cut given only in a name is not applied to a line headed by its entry. Residues count along the entry.
UniProt P19022, residues 160-906: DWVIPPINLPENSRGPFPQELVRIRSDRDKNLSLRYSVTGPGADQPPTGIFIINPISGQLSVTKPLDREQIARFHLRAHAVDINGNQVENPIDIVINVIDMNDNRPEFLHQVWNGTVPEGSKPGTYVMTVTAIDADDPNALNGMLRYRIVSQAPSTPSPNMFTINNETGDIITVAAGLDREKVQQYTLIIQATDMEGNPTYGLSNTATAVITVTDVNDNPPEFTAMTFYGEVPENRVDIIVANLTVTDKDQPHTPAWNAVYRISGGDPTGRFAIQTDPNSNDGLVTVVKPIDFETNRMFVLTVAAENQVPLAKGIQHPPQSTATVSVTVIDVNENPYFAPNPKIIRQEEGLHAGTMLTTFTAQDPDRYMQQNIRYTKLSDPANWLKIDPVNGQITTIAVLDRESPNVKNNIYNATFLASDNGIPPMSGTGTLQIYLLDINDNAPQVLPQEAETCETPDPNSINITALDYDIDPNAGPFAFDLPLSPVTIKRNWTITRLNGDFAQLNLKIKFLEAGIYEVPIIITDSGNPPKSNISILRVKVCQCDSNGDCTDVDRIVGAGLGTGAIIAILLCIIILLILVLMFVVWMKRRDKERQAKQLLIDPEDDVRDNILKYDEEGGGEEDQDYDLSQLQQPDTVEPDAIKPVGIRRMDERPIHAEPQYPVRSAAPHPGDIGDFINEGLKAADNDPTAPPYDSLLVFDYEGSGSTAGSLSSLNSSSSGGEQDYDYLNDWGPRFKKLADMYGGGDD
UniProt Q13444: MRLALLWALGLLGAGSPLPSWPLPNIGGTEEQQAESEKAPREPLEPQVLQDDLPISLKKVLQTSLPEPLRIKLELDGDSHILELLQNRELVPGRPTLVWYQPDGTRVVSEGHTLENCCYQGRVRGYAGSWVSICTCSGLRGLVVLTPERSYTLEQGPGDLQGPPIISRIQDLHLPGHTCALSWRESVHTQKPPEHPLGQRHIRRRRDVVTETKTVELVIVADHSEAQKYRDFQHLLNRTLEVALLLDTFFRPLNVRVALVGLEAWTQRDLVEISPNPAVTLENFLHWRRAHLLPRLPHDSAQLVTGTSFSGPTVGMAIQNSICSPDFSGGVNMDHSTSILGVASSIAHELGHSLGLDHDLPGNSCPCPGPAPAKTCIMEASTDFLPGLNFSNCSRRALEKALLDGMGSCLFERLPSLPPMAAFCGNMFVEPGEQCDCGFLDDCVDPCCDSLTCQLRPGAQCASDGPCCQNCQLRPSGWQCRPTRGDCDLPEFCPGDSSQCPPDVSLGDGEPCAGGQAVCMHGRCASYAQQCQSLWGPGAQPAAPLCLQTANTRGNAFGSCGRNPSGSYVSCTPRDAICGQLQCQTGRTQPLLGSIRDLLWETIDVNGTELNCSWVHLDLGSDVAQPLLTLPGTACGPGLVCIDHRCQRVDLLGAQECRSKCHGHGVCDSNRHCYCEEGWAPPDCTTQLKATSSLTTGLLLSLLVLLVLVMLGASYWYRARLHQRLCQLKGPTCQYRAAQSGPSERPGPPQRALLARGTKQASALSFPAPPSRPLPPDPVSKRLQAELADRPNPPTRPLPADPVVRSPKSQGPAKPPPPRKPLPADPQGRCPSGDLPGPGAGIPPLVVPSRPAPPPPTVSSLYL
UniProt Q13177: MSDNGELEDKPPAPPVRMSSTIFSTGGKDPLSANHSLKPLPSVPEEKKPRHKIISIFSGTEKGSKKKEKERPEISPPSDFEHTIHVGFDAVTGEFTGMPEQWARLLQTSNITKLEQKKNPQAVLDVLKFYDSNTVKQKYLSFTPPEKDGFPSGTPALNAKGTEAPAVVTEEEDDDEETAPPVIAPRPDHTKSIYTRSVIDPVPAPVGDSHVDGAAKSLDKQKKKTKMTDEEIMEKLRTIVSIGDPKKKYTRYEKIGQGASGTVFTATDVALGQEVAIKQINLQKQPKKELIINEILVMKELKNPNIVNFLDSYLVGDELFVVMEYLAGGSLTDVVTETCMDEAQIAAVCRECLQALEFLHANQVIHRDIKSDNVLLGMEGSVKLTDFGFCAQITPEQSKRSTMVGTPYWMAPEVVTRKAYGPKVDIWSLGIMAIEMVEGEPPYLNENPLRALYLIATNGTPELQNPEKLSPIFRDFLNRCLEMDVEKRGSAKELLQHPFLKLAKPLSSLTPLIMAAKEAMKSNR

Data on two substances can be found in article PMC11928650.

Test [1] concerns the target N-cadherin (NCAD), endogenous in the chondrocyte cell line T/C28a4 (human (endogenous in T/C28a4)) (UniProt P19022). The test can be described thus: co-IP; lysates of T/C28a4 chondrocyte cells transfected with full length ADAM15 or ADAM15 Δcyto (10 mM HEPES pH 7.0, 150 mM NaCl, 1% Triton X-100), ADAM15 or N-cadherin antibody with protein G agarose overnight at 4 °C, immunoblot; cells mechanically strained where Nck and PAK2 were detected. On the technique in general: Immunoblotting shows a protein as a band on a membrane.

Test [2] has as its target full length ADAM15 transfected into the chondrocyte cell line T/C28a4 (UniProt Q13444). The test can be described thus: condition: only unstimulated cells (no mechanical strain); co-IP; as a4, but unstimulated (not mechanically strained) T/C28a4 cells with full length ADAM15; ADAM15 antibody, blots for Nck and PAK2.
The target is the same in test [3]. Description: co-IP; lysates of T/C28a4 chondrocyte cells transfected with full length ADAM15 or ADAM15 Δcyto (10 mM HEPES pH 7.0, 150 mM NaCl, 1% Triton X-100), ADAM15 or N-cadherin antibody with protein G agarose overnight at 4 °C, immunoblot; cells mechanically strained where Nck and PAK2 were detected.

With “full length ADAM15 transfected into the chondrocyte cell line T/C28a4 (from UniProt Q13444)”, in test [1], the binding entry is given as “binds”. As to “p21-activated kinase 2 (PAK2), endogenous in the chondrocyte cell line T/C28a4 (from UniProt Q13177 1-524)”, the binding entry was “no binding” in test [2] and “binds” in test [3].
